# Some results were stated once for a whole list of compounds, not compound by compound.
# System: HIV
# Assay: Assay for inhibition of HIV replication (acute HIV infection of T-lymphoid cells)
# Assay type: cell-based
smiles,measurement,value
"CNC(=O)c1cc(F)ccc1CNC(=O)c1nc(N2CCCCS2(=O)=O)c2cccnc2c1[O-].[Na+] [Example 3, Sodium 5-(1,1-dioxido-1,2-thiazinan-2-yl)-7-[({4-fluoro-2-[(methylamino)carbonyl]-benzyl}amino)carbonyl]-1,6-naphthyridin-8-olate]","IC95, inhibition of HIV replication",less than 5 micromolar

# Reference: patent US7323460B2, “N-(substituted benzyl)-8-hydroxy-1,6-naphthyridine-7-carboxamides useful as HIV integrase inhibitors” (Merck & Co., Inc., priority 2002, dated 2008)
